Source: article doi:10.1101/2020.11.06.372292
These are yes or no findings as the source states them, for the method shown. In cells and extracts the contact can be indirect. Some entries that bind do so weakly or less than the wild type.

T1: βPix, endogenous in mouse kidney (mouse (endogenous in kidney tissue)) (UniProt Q9ES28)
T1 sequence: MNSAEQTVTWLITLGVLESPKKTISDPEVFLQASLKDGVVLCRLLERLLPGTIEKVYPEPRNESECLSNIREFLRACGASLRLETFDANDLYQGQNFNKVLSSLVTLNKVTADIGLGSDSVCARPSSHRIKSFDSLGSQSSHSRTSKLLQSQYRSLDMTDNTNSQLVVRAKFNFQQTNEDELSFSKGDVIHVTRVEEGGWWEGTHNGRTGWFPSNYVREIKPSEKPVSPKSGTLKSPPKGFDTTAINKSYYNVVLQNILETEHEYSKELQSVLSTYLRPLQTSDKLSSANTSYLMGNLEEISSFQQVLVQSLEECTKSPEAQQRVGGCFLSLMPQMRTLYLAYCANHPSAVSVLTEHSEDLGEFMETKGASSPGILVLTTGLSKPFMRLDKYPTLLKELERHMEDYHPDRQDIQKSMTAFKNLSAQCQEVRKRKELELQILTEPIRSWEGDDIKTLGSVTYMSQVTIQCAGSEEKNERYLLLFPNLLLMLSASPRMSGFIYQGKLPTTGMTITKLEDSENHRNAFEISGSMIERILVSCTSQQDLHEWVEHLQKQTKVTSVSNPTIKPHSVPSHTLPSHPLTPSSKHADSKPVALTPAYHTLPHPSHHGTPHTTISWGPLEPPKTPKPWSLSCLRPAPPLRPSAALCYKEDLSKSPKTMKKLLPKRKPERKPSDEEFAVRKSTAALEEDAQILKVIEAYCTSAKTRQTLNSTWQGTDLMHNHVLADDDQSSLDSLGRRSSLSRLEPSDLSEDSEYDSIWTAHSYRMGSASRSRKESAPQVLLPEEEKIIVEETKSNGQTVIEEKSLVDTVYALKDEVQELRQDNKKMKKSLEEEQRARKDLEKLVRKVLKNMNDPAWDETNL


What was measured:
Assay in all cases: co-IP
[1] = molecular target: low density lipoprotein receptor (LDLR), endogenous in HepG2 cells (human (endogenous in HepG2)) (UniProt P01130)
[2] = molecular target: βPix, endogenous in HepG2 cells (human (endogenous in HepG2)) (UniProt Q14155)
[3] = molecular target: T1, βPix, endogenous in mouse kidney (mouse (endogenous in kidney tissue))

Row | binding [1] | binding [2] | binding [3] | Binder
1 | binds | binds |  | inducible degrader of the LDLR (IDOL), endogenous in HepG2 cells (enzyme, UniProt Q8WY64 1-445) MLCYVTRPDAVLMEVEVEAKANGEDCLNQVCRRLGIIEVDYFGLQFTGSKGESLWLNLRNRISQQMDGLAPYRLKLRVKFFVEPHLILQEQTRHIFFLHIKEALLAGHLLCSPEQAVELSALLAQTKFGDYNQNTAKYNYEELCAKELSSATLNSIVAKHKELEGTSQASAEYQVLQIVSAMENYGIEWHSVRDSEGQKLLIGVGPEGISICKDDFSPINRIAYPVVQMATQSGKNVYLTVTKESGNSIVLLFKMISTRAASGLYRAITETHAFYRCDTVTSAVMMQYSRDLKGHLASLFLNENINLGKKYVFDIKRTSKEVYDHARRALYNAGVVDLVSRNNQSPSHSPLKSSESSMNCSSCEGLSCQQTRVLQEKLRKLKEAMLCMVCCEEEINSTFCPCGHTVCCESCAAQLQSCPVCRSRVEHVQHVYLPTHTSLLNLTVI
2 |  |  | binds | inducible degrader of the LDLR (IDOL), endogenous in mouse kidney (enzyme, UniProt Q8BM54 1-445) MLCYVTRPDAVLMEVEVEAKANGEDCLNQVCRRLGIIEVDYFGLQFTGSKGESLWLNLRNRISQQMDGLAPYRLKLRVKFFVEPHLILQEQTRHIFFLHIKESLLAGHLQCSPEQAVELSALLAQTKFGDYNQNTAQYSYEDLCEKELSSSTLNSIVAKHKELEGISQASAEYQVLQIVSAMENYGIEWHAVRDSEGQKLLIGVGPEGISICKEDFSPINRIAYPVVQMATQSGKNVYLTVTKESGNSIVLLFKMISTRAASGLYRAITETHAFYRCDTVTSAVMMQYSRDLKGHLASLFLNENINLGKKYVFDIKRTSKEVYDHARRALYNAGVVDLVSRSDQSPPSSPLKSSDSSMSCSSCEGLSCQQTRVLQEKLRKLKEAMLCMACCEEEINSTFCPCGHTVCCESCAAQLQSCPVCRSRVEHVQHVYLPTHTSLLNLTVI
